Data as given in PubChem BioAssay AID2685 (National Center for Advancing Translational Sciences (NCATS), 2010).
The other results are listed elsewhere or left out. Shown are side measurements of this screen, not its main read-out; they come without a call. Most of these compounds were active or inconclusive in the main read-out, so they are no random draw. Words in brackets tell the shape of the fitted curve; partial curves, single points and poor fits give uncertain potencies.

Experiment: qHTS Assay for Lipid Storage Modulators in Drosophila S3 Cells;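 for cell number change: cells counted by Cell Tracker Red CMTPX staining in the red channel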
Conditions: BODIPY lipid droplet fluorescence, 18-24 h; for cell number change: measured here: cell count max response, cells fed with added oleic acid
Method in brief: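 Drosophila S3 cells loaded with oleic acid (400 uM, as added) and compounds at several concentrations; lipid droplets imaged by 488-nm laser-scanning cytometry, 500–530 nm intensity and object ratio to cell channel. Percent activity normalized to 20 uM Triacsin C.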

[1] = measured here: cell number channel AC50, cells fed with added oleic acid
[2] = measured here: lipid fluorescence (Fed channel) AC50, cells fed with added oleic acid

Compound	cell number change [%]	AC50 [1]	AC50 [2]
CC(OC(=O)C1CC1)C(=O)Nc1ccc([N+](=O)[O-])cc1Cl (stereo unspecified)	14.3		
O=C(Nc1ccc(NC(=O)c2ccco2)c(Cl)c1)c1cccc([N+](=O)[O-])c1	20.8		
CC(=O)NCCn1c(SCc2ccc(C)cc2C)nc2ccccc2c1=O	87.7	3.26 µM [rising, full curve]	
Cc1cc(C(=O)N(C)CC(=O)Nc2ccccc2C(F)(F)F)c(C)o1	13.9		0.0326 µM [rising, full curve, poor fit]
CN(CC1CCCO1)S(=O)(=O)c1ccc(C(=O)Nc2nc(-c3ccccn3)cs2)cc1 (stereo unspecified)	-18.5		29.1 µM [falling, single point]
N#C/C(=C\c1ccc(O)cc1)c1nc2ccccc2o1	-40.2	16.4 µM [falling, single point]	29.1 µM [falling, single point]
O=C(COC(=O)c1c(F)cccc1F)NCCNC(=O)COC(=O)c1c(F)cccc1F	1.25		11.6 µM [falling, partial curve, poor fit]
Clc1ccc(-c2ccnc(-n3cccc3)n2)s1			20.6 µM [rising, partial curve]
O=S(Cc1ccc(Br)cc1)Cc1nnc(SCc2c(Cl)cccc2Cl)n1-c1ccccc1 (stereo unspecified)	-88.6	29.1 µM [falling, single point]	29.1 µM [falling, single point]
Cc1ccc(S(=O)(=O)NCC(=O)NCC(=O)OCC(=O)N2CC(=O)Nc3ccccc32)cc1C	-11.9		0.461 µM [falling, full curve]
COc1cccc(NC(=O)CN2CCC(C)CC2)c1	-17	0.731 µM [falling, full curve, poor fit]	0.92 µM [falling, full curve]
O=C(c1ccc(CS(=O)(=O)c2ccc(Br)cc2)o1)N1CCCC1	-30.3	29.1 µM [falling, single point]	0.116 µM [rising, full curve, poor fit]
O=C(CSC1=Nc2ccccc2C2CC=NN12)Nc1ccc(F)cc1Cl (stereo unspecified)	-55		
O=C(NCc1ccccc1)C1CCN(C(=O)NCc2ccccc2)CC1	-44.9	29.1 µM [falling, single point]	
CC(=O)CCS(=O)(=O)c1ccc(NC(C)=O)cc1	-25.8	0.517 µM [falling, full curve, poor fit]	6.51 µM [falling, partial curve]
S=C(NCc1ccccc1)N1CCN(C(=S)NCc2ccccc2)CC1	-15.2		6.51 µM [rising, partial curve, poor fit]
O=C(COC(=O)CNS(=O)(=O)c1c(F)cccc1F)NC(=O)NC1CCCCC1	-11.3		0.00461 µM [falling, full curve, poor fit]
Cc1ccc(S(=O)(=O)N(CC(=O)N/N=C/c2ccco2)c2cc(Cl)cc(Cl)c2)cc1	9.95		1.16 µM [falling, single point]
CCOc1ccc(CN2CCN(Cc3ccc4cc(F)ccc4n3)CC2CCO)cc1 (stereo unspecified)	-14.2		29.1 µM [falling, single point]

As a working copy, some entries already given:
Compound	cell number change [%]	AC50 [1]	AC50 [2]
CC(OC(=O)C1CC1)C(=O)Nc1ccc([N+](=O)[O-])cc1Cl (stereo unspecified)	14.3		
O=C(Nc1ccc(NC(=O)c2ccco2)c(Cl)c1)c1cccc([N+](=O)[O-])c1	20.8		
CC(=O)NCCn1c(SCc2ccc(C)cc2C)nc2ccccc2c1=O	87.7	3.26 µM [rising, full curve]	
Cc1cc(C(=O)N(C)CC(=O)Nc2ccccc2C(F)(F)F)c(C)o1	13.9		0.0326 µM [rising, full curve, poor fit]
CN(CC1CCCO1)S(=O)(=O)c1ccc(C(=O)Nc2nc(-c3ccccn3)cs2)cc1 (stereo unspecified)	-18.5		29.1 µM [falling, single point]
N#C/C(=C\c1ccc(O)cc1)c1nc2ccccc2o1	-40.2	16.4 µM [falling, single point]	29.1 µM [falling, single point]
O=C(COC(=O)c1c(F)cccc1F)NCCNC(=O)COC(=O)c1c(F)cccc1F	1.25		11.6 µM [falling, partial curve, poor fit]
Clc1ccc(-c2ccnc(-n3cccc3)n2)s1			20.6 µM [rising, partial curve]
O=S(Cc1ccc(Br)cc1)Cc1nnc(SCc2c(Cl)cccc2Cl)n1-c1ccccc1 (stereo unspecified)	-88.6	29.1 µM [falling, single point]	29.1 µM [falling, single point]
Cc1ccc(S(=O)(=O)NCC(=O)NCC(=O)OCC(=O)N2CC(=O)Nc3ccccc32)cc1C	-11.9		0.461 µM [falling, full curve]

Continued:

Compound	cell number change [%]	AC50 [1]	AC50 [2]
CC(C)(CNC(=O)c1ccc(NS(=O)(=O)c2ccc(F)c(F)c2)cc1)N1CCOCC1		0.731 µM [rising, full curve]	
Cc1ccc(CS(=O)Cc2ccc(C(=O)NCc3ccc4c(c3)OCO4)o2)cc1 (stereo unspecified)	2.29		6.51 µM [rising, single point]
N#C/C(=C\c1ccc(-c2cccc(C(F)(F)F)c2)o1)C(=O)Nn1cnnc1	-17.7		
CCOC(=O)NC(C(F)(F)F)(C(F)(F)F)P(=O)(c1ccccc1)c1ccccc1	-1.58		0.00461 µM [rising, full curve, poor fit]
Cc1ccc(C2=NS(=O)(=O)N(C)C(C(=O)NCc3ccccc3)=C2)cc1	-2.59		16.4 µM [falling, single point]
CC(C)(C)C(=O)Nc1ccc(NC(=O)c2ccco2)nc1	5.56		0.58 µM [rising, single point]
O=C(c1ccc(N2CCCC2=O)cc1)N1CCN(c2ccccc2O)CC1	13.6		0.116 µM [falling, full curve, poor fit]
Cc1ccc(C(=O)NCC(=O)N2CCC3(CC2)NCCc2[nH]cnc23)cc1C	-27.4		
O=[N+]([O-])c1ccccc1S(=O)(=O)Oc1ccc(C(=S)N2CCOCC2)cc1	9.84		11.6 µM [rising, partial curve]
COc1ccc(N2C(=O)CSCC2=O)cc1OC	33.1	3.26 µM [rising, partial curve, poor fit]	
CCOC(=O)N1CCN(C(=O)CCN2C(=O)COc3ccc(C)cc32)CC1		6.51 µM [falling, single point]	4.61 µM [falling, partial curve]
Cc1c(OCc2nn[nH]n2)ccc2c(-c3ccccc3)cc(=O)oc12	3.75	0.651 µM [falling, single point]	
Cc1coc2c(C)c3oc(=O)c(CCC(=O)NCc4ccccn4)c(C)c3cc12	-21.2		0.731 µM [falling, full curve, poor fit]
COc1cc(CNC(C)(C)CO)ccc1OCC(=O)Nc1ccc(Br)cc1	-13.3		1.64 µM [falling, full curve, poor fit]
CCCOc1ccc2cc(C(=O)NCc3ccccc3)c(=O)oc2c1			6.51 µM [rising, single point]
CCC(SC1=N/C(=C/c2ccccc2OC)C(=O)N1c1ccccc1)C(=O)Nc1cc(C)on1 (stereo unspecified)	142		29.1 µM [rising, single point]
COc1cccc(CN=c2c([N+](=O)[O-])nn(-c3ccccc3C)n2O)c1	15.3		0.517 µM [falling, single point]
COc1cc(/C=N/n2c(C)nnc2C)cc(OC)c1OC	0.457		0.058 µM [falling, full curve, poor fit]
